The entries are a selection whose mix differs from that of the whole data set. Inconclusive results are not listed. Calls of active or inactive are those of the source. Cut-off read from the data, not from the text of the source: active = CPE inhibition above about 20% (passing the limit was not always enough); inconclusive = no clear call, values can overlap the other calls; tested in BHK-21 cells.

The test can be described thus: protection of cells from dengue 2 killing – plate reader, single concentration, primary screen (AID 651640).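 Note: 0% = median of neutral control wells and 100% = median of positive control wells.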 As to conditions: DENV2-infected cells, cytopathic effect rescue, at 9.99 µM, stronger effect = higher value. In general terms: Protection from cytopathic effect is a common read-out in antiviral testing.
Consider `CCCCCCCCc1ccc(O)cc1`, for which the CPE inhibition was active: 45.4%.

For the origin of these results see PubChem BioAssay AID651640 (Broad Institute, 2012).
